The target in experiment [1] is T1, ALK-4 endogenous in PAE/Chim A cells (porcine) (UniProt D3K5N5).
T1 sequence: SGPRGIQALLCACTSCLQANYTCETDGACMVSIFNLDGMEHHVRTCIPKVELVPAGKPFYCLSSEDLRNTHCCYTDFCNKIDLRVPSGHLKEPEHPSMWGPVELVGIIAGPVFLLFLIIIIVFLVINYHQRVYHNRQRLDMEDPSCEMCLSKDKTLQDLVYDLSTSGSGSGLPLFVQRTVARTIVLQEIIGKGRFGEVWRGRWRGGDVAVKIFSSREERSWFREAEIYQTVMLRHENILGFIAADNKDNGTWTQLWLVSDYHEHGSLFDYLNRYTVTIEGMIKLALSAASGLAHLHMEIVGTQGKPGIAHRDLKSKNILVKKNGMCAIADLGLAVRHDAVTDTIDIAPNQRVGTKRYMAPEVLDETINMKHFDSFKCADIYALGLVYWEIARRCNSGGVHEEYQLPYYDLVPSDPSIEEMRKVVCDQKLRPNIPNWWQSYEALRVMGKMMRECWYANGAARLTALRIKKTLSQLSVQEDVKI
The experiment can be described thus: 125I-activin A cross-linking followed by immunoprecipitation, PAE/Chim A cells.

Sequences of proteins named here, by UniProt entry; tags and fusion partners are left off. A change or cut given only in a name is not applied to a line headed by its entry. Residues count along the entry.
UniProt P37023: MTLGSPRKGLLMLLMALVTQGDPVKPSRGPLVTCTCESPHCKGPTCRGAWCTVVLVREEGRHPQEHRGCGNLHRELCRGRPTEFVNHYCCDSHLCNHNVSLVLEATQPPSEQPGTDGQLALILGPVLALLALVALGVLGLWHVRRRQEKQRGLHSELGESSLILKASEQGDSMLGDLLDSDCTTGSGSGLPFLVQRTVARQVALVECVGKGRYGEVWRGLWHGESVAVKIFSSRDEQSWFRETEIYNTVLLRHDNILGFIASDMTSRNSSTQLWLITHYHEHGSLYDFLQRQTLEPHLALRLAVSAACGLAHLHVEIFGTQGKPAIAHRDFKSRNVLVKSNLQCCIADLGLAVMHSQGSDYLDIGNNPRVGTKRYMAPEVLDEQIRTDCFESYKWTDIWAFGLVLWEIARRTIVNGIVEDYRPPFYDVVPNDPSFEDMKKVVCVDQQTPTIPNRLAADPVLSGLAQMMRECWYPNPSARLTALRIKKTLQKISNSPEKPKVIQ
UniProt P08476, residues 311-426: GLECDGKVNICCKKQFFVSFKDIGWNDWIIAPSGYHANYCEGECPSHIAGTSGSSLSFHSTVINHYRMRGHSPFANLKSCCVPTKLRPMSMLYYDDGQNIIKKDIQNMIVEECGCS
UniProt P01137, residues 279-390: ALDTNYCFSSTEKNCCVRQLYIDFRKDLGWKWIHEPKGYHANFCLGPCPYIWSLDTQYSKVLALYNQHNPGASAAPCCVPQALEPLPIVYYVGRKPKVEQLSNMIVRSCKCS

In experiment [2] the target is ALK-1 (activin receptor like kinase 1), human (human) (UniProt P37023). Nature of the experiment: summary of the affinity cross-linking experiments in co-transfected COS-1 cells.
Experiment [3] shares this target. Nature of the experiment: affinity cross-linking followed by immunoprecipitation, COS-1 cells co-transfected with ActR-II and the ALK.
The target of experiment [4] is T2, ALK-5 endogenous in untransfected porcine aortic endothelial (PAE) cells (porcine) (UniProt Q5CD21).
T2 sequence: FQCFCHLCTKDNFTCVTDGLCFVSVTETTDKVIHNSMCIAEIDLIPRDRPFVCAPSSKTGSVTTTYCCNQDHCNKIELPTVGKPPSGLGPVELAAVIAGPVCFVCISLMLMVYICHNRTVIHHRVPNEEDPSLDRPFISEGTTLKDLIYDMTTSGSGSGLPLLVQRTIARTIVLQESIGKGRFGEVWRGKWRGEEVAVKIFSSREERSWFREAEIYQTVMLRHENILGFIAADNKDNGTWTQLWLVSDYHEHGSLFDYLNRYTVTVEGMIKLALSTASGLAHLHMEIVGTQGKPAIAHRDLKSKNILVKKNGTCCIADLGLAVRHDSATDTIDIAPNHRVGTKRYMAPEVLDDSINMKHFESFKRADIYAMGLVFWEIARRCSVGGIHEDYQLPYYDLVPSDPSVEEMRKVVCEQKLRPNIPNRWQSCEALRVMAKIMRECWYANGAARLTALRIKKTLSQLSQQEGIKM
The experiment can be described thus: affinity cross-linking (DSS) on untransfected PAE cells, SDS-PAGE and autoradiography.

Results are given in words; binding and its absence hold for the method and conditions named. Some results given as binding are weak or reduced against the parent protein; the word gives no strength.

In the case of “Recombinant human activin A (from UniProt P08476 311-426) (ligand)”, the binding entry in experiment [1], in experiment [2] and in experiment [3] was “binds” in each case.

Consider “Recombinant human TGF-β1 (from UniProt P01137 279-390) (ligand)”, for which the binding entry in experiment [4] was “binds”.

For the origin of these results see patent publication US20080131910A1.
